Experimental data from article doi:10.1101/2025.11.17.688879.
Results are given in words; binding and its absence hold for the method and conditions named. Binding seen in cells or lysates may run through a third protein. Binding can be weak; no strength is given. For some of these results: Sequences can lack the tags named with a protein.

By UniProt entry, the sequences of proteins in these tests, tags left out. Where a name states a change or a piece, a line headed by the entry shows the natural chain unless it says otherwise.
UniProt Q86WV6: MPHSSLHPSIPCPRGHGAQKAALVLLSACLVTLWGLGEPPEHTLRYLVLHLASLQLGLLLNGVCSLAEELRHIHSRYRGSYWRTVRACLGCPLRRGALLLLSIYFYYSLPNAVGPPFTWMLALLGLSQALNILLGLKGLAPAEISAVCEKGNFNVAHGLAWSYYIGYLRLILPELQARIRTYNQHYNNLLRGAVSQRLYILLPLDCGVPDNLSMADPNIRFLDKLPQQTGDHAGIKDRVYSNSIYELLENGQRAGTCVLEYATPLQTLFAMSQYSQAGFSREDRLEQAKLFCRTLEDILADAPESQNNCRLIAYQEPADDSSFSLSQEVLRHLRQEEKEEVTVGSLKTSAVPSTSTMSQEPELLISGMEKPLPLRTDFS

Legend:
Assay in all cases: co-IP
[1] = target: DrSTINGΔCTT (Danio rerio STING with the C-terminal tail ablated) (Danio rerio)
[2] = target: HA-MmSTINGΔCTTΔCBD (Mus musculus STING mutant comprising the TM domain alone) (Mus musculus)
[3] = target: MmSTINGΔCTT (Mus musculus STING with the C-terminal tail ablated) (Mus musculus)
[4] = target: HA-HsSTING-HAQ (human STING haplotype R71H-G230A-R293Q), expressed in HEK 293T (human) (UniProt Q86WV6)
[5] = target: HA-HsSTING-R232H (human STING haplotype R232H), expressed in HEK 293T (human) (UniProt Q86WV6)
[6] = target: HA-HsSTING-R232H-ΔCTT stably expressed in THP-1 Sting-/- cells (THP-1^HsSTING-R232H-ΔCTT) (human) (UniProt Q86WV6)
[7] = target: HA-HsSTING-R232H stably expressed in THP-1 Sting-/- cells (THP-1^HsSTING-R232H) (human) (UniProt Q86WV6)

B1: MmFADS2-FLAG (fatty acid desaturase 2 of Mus musculus) (protein)
chain: MGKGGNQGEGSTERQAPMPTFRWEEIQKHNLRTDRWLVIDRKVYNVTKWSQRHPGGHRVIGHYSGEDATDAFRAFHLDLDFVGKFLKPLLIGELAPEEPSLDRGKSSQITEDFRALKKTAEDMNLFKTNHLFFFLLLSHIIVMESLAWFILSYFGTGWIPTLVTAFVLATSQAQAGWLQHDYGHLSVYKKSIWNHVVHKFVIGHLKGASANWWNHRHFQHHAKPNIFHKDPDIKSLHVFVLGEWQPLEYGKKKLKYLPYNHQHEYFFLIGPPLLIPMYFQYQIIMTMISRRDWVDLAWAISYYMRFFYTYIPFYGILGALVFLNFIRFLESHWFVWVTQMNHLVMEIDLDHYRDWFSSQLAATCNVEQSFFNDWFSGHLNFQIEHHLFPTMPRHNLHKIAPLVKSLCAKHGIEYQEKPLLRALIDIVSSLKKSGELWLDAYLHK
binding [1]: binds | binding [2]: binds | binding [3]: binds

B2: HsFADS2-FLAG (human fatty acid desaturase 2) (protein, UniProt O95864 1-444)
chain: MGKGGNQGEGAAEREVSVPTFSWEEIQKHNLRTDRWLVIDRKVYNITKWSIQHPGGQRVIGHYAGEDATDAFRAFHPDLEFVGKFLKPLLIGELAPEEPSQDHGKNSKITEDFRALRKTAEDMNLFKTNHVFFLLLLAHIIALESIAWFTVFYFGNGWIPTLITAFVLATSQAQAGWLQHDYGHLSVYRKPKWNHLVHKFVIGHLKGASANWWNHRHFQHHAKPNIFHKDPDVNMLHVFVLGEWQPIEYGKKKLKYLPYNHQHEYFFLIGPPLLIPMYFQYQIIMTMIVHKNWVDLAWAVSYYIRFFITYIPFYGILGALLFLNFIRFLESHWFVWVTQMNHIVMEIDQEAYRDWFSSQLTATCNVEQSFFNDWFSGHLNFQIEHHLFPTMPRHNLHKIAPLVKSLCAKHGIEYQEKPLLRALLDIIRSLKKSGKLWLDAYLHK
binding [4]: binds | binding [5]: binds

B3: FADS2 of THP-1 human myeloid cells (protein, UniProt O95864 1-444)
chain: B2 chain
binding [6]: binds | binding [7]: binds
